No constants are given. Whether binding was seen depends on the method and setting. Binding seen in cells or lysates may run through a third protein.
Assays:
CLPP-WT-FLAG = CLPP-WT-FLAG (UniProt O88696); test: co-IP; same anti-FLAG immunoprecipitation from whole cell lysates of transfected Clpp-/- MEFs; lysate, flow-through, wash and elution fractions by SDS-PAGE and Western blotting
CLPP-TRAP-FLAG = CLPP-TRAP-FLAG (UniProt O88696); test: as above

By UniProt entry, the sequences of proteins in these tests, tags left out. Where a name states a change or a piece, a line headed by the entry shows the natural chain unless it says otherwise. Chains listed by the source or under a name are the forms on record and can include a tag or linker. Residues count along the entry.
CLPP-WT-FLAG (O88696, residues 53-272): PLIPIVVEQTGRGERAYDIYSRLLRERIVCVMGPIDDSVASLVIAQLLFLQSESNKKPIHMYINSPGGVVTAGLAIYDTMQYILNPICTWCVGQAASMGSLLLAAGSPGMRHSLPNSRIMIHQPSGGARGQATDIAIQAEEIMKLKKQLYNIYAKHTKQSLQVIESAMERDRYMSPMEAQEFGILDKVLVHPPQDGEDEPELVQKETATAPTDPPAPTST
CLPP-TRAP-FLAG (O88696, form named): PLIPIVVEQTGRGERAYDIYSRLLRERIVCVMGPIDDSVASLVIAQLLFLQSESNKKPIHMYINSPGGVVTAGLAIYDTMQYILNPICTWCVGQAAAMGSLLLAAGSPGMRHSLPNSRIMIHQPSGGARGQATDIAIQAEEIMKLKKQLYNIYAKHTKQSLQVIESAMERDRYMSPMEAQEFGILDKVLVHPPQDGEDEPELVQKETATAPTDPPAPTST
UniProt Q9DCC8: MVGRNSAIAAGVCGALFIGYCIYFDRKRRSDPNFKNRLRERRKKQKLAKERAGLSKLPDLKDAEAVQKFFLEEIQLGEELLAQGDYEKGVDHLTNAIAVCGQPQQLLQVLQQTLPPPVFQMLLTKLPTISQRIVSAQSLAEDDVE

binding (CLPP-WT-FLAG): no binding
binding (CLPP-TRAP-FLAG): no binding
Substance: TOMM20 (from UniProt Q9DCC8 1-145)

Source: article PMC8014998
